Where a chain is given by its changes, count along the chain named. For at least one entry, the source does not settle the construct or the ends of the probe. For part of these data: A weaker result is weaker than the reference pair of the same experiment. For part of these data: At least one verdict rests on a figure or table, not on a statement of the authors. Protein sequences can lack the tags named with them.
Assays:
Assay in all cases: EMSA
[1] = target: T1, R.PabI(K154A) K151A (Pyrococcus abyssi) (UniProt G8ZFZ3); conditions: 50-fold excess unlabelled nonspecific competitor (S2 duplex), EMSA: 10 mM MES pH 6.0, 300 mM NaCl, 0.1 uM probe, 25-fold (Y68F series) or 50-fold (K154A series) unlabelled nonspecific competitor, 10% PAGE, 0.5x TBE, 4 C, recombinant protein, label: 5'-fluorescein on strand 1
T1 sequence (looked up, limits assumed): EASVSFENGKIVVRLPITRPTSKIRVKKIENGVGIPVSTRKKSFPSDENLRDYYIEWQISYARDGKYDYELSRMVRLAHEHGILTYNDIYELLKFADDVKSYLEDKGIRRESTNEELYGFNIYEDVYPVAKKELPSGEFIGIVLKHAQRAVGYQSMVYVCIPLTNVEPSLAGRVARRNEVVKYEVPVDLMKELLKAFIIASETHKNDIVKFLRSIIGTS

[2] = target: T2, R.PabI(K154A-P27G-T28G) P24G,T25G,K151A (Pyrococcus abyssi) (UniProt G8ZFZ3); conditions: 50-fold excess unlabelled nonspecific competitor (S2 duplex), reduced vs K154A; EMSA: 10 mM MES pH 6.0, 300 mM NaCl, 0.1 uM probe, 25-fold (Y68F series) or 50-fold (K154A series) unlabelled nonspecific competitor; 10% PAGE, 0.5x TBE, 4 C; recombinant protein; label: 5'-fluorescein on strand 1
T2 sequence (looked up, limits assumed): T1 sequence (looked up, limits assumed) with P20G, T21G

[3] = target: T3, R.PabI(Y68F) Y65F (Pyrococcus abyssi) (UniProt G8ZFZ3); conditions: 25-fold excess unlabelled nonspecific competitor (S2 duplex); EMSA: 10 mM MES pH 6.0, 300 mM NaCl, 0.1 uM probe, 25-fold (Y68F series) or 50-fold (K154A series) unlabelled nonspecific competitor; 10% PAGE, 0.5x TBE, 4 C; recombinant protein; label: 5'-fluorescein on strand 1
T3 sequence (looked up, limits assumed): T1 sequence (looked up, limits assumed) with Y61F, A147K, A150K

[4] = target: T4, R.PabI(Y68F-P27G-T28G) P24G,T25G,Y65F (Pyrococcus abyssi) (UniProt G8ZFZ3); conditions: 25-fold excess unlabelled nonspecific competitor (S2 duplex), highly reduced vs Y68F; EMSA: 10 mM MES pH 6.0, 300 mM NaCl, 0.1 uM probe, 25-fold (Y68F series) or 50-fold (K154A series) unlabelled nonspecific competitor; 10% PAGE, 0.5x TBE, 4 C; recombinant protein; label: 5'-fluorescein on strand 1
T4 sequence (looked up, limits assumed): T1 sequence (looked up, limits assumed) with P20G, T21G, Y61F, A147K, A150K

| Sequence | binding result [1] | binding result [2] | binding result ([1]; two shifted bands) | binding result [3] | binding result [4] |
| --- | --- | --- | --- | --- | --- |
| GGATGCATGAGATCGAGGACCATC (double strand) [nonspecific probe (24 bp)] | binds | binds more weakly | – | – | – |
| GGATGCATGAGTACGAGGACCATC (double strand) [specific probe (24 bp)] | – | binds more weakly | binds | binds | binds more weakly |

Reference: article PMC7229829, “Distortion of double-stranded DNA structure by the binding of the restriction DNA glycosylase R.PabI” (Nucleic Acids Research, 2020)
